# Record: PubChem BioAssay AID652272 (Drosophila RNAi Screening Center, 2013)
# Screen: 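Genes whose knock-down decreases or increases Hedgehog reporter output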 (primary screen)
# System: Drosophila clone 8 (Cl8) cells
# Reagent: long dsRNA against Drosophila genes
# Detection: 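Plate reader light from a firefly reporter under a ptc promoter fragment that responds to Hedgehog, with Renilla light as transfection reference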
# Scale: firefly Hh reporter signal: higher = more ptc reporter light; Renilla reference signal: higher = more Renilla control light
# Rule for the call: 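Called a hit if the two-replicate mean z-score lies below -2 or above +3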
# Calls: active = hit: reporter lowered or raised; inactive = not a hit
# The screen tested about 21,000 reagents; this is an unselected part of those with a known target gene and a result. Of all reagents, 503 (2.4%) were called active. 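Raw plate light values, not normalised; calls rest on replicate z-scores that were not deposited; hits include reporter decreases as well as increases.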 No sequences are given here. Not stated in the record: the amount of reagent, the time to read-out.
predicted target,dsRNA,"firefly Hh reporter signal, replicate 1","firefly Hh reporter signal, replicate 2","firefly Hh reporter signal, replicate 3","Renilla reference signal, replicate 1","Renilla reference signal, replicate 2",outcome
PIG-A (Phosphatidylinositol glycan anchor biosynthesis class A),DRSC06982,81848,58016,,3944,2608,inactive
Culd (CUB and LDLa domain),DRSC10262,95180,94381,,4389,3365,inactive
Gr98d (Gustatory receptor 98d),DRSC14571,94657,1.12e5,,2051,3267,inactive
VhaM9.7-b (Vacuolar H[+] ATPase M9.7 subunit b),DRSC11841,82213,63973,,2137,1764,inactive
peb (pebbled),DRSC18817,54853,85472,,1978,3193,inactive
CG10505,DRSC04075,77147,60145,,1899,6022,inactive
galene,DRSC08640,61558,35387,,2112,2738,inactive
galene,DRSC08641,1.07e5,59184,,3667,4961,inactive
APP-BP1 (beta-Amyloid precursor protein binding protein 1),DRSC10920,60937,53539,56939,5082,4384,inactive
CG5608,DRSC15841,1.68e5,1.43e5,,7357,5357,inactive
RhoGAP18B (Rho GTPase activating protein at 18B),DRSC19763,52489,2.21e5,,928,8906,inactive
RhoGAP18B (Rho GTPase activating protein at 18B),DRSC20047,62742,1.86e5,,1705,8208,inactive
RhoGAP18B (Rho GTPase activating protein at 18B),DRSC20048,76056,1.86e5,,1987,6217,inactive
RhoGAP18B (Rho GTPase activating protein at 18B),DRSC20049,80634,66492,,8008,2384,active
CG17681,DRSC02632,1.13e5,63479,,2626,5656,inactive
mof (males absent on the first),DRSC18795,74492,1.60e5,,1946,3122,active
CG17717,DRSC18130,70304,1.89e5,,2567,7042,inactive
CG11409,DRSC18579,74682,92624,,919,2944,inactive
CG31886,DRSC03248,89300,85200,,3357,3462,inactive
Lsm11,DRSC06238,96058,49563,,1792,2317,inactive
CG13577,DRSC04213,65637,39655,,1728,3312,inactive
CG15534,DRSC15070,58161,96422,,2004,2197,inactive
CG10232,DRSC14218,3.83e5,96581,,19760,2921,inactive
CG3740,DRSC18508,55650,2.32e5,,1689,6996,inactive
CG5157,DRSC10488,1.30e5,,,2067,3560,inactive
olf413,DRSC11543,1.62e5,,,4025,,inactive
olf413,DRSC11679,5.65e5,1.44e5,1.90e5,4880,3616,inactive
olf413,DRSC11721,1.39e5,1.44e5,,4218,4160,inactive
olf413,DRSC11833,1.29e5,1.82e5,,4150,5029,inactive
nmd (no mitochondrial derivative),DRSC02856,60416,31024,,2968,1632,inactive
CG33966,DRSC08256,68848,44080,,1965,3600,inactive
CG4712,DRSC06882,1.47e5,60388,,3745,4845,inactive
CR9337 (pseudo),DRSC03212,66075,43283,,2677,2064,inactive
robls54B (roadblock similar 54B),DRSC05660,1.04e5,1.90e5,,2923,8055,inactive
NdufV3 (NADH:ubiquinone oxidoreductase subunit V3),DRSC19423,85142,2.54e5,,1821,9888,inactive
CG18130,DRSC19790,73868,2.37e5,,1906,8105,inactive
CG13001,DRSC19520,1.29e5,5.83e5,2.94e5,2224,5175,inactive
Mst57Dc (Male-specific transcript 57Dc),DRSC16745,4.63e5,1.60e5,,22167,4428,inactive
RpL7 (Ribosomal protein L7),DRSC03417,18676,17405,,1306,3592,active
dre4,DRSC08714,63576,46363,,2781,3401,inactive
CG40198,DRSC21068,4.97e5,2.22e5,,30475,5241,inactive
nsr (novel spermatogenesis regulator),DRSC04427,1.84e5,1.58e5,,7098,5936,inactive
CG6927,DRSC18407,1.09e5,78371,,2245,1705,inactive
CG8483,DRSC16430,1.14e5,85504,,4330,3303,inactive
CG1698,DRSC06640,80234,55283,,2976,2048,inactive
mei-P26 (meiotic P26),DRSC17735,30619,18903,,992,605,inactive
MFS3 (Major Facilitator Superfamily Transporter 3),DRSC00664,1.51e5,98685,,3242,2592,inactive
CG12983,DRSC11692,1.13e5,87371,,4120,2582,inactive
Or82a (Odorant receptor 82a),DRSC11996,2.27e5,,,5261,,inactive
TM9SF3 (Transmembrane 9 superfamily protein member 3),DRSC09747,32536,44968,,3824,3418,inactive
Vps16A (Vacuolar protein sorting 16A),DRSC16422,66765,1.14e5,,2139,2976,inactive
Sac1 (Sac1 phosphatase),DRSC08622,1.01e5,92368,,5239,3729,inactive
CG33267,DRSC09120,1.20e5,2.88e5,,3082,11200,inactive
CG9399,DRSC16488,1.23e5,1.21e5,,3916,3129,inactive
CG15021,DRSC08475,82593,74042,,5536,5635,inactive
CG14302,DRSC14781,8.20e5,1.55e5,,39344,3941,inactive
Osi19 (Osiris 19),DRSC12569,59088,1.28e5,,2132,3611,inactive

5 successive entries from above, for reference:
predicted target,dsRNA,"firefly Hh reporter signal, replicate 1","firefly Hh reporter signal, replicate 2","firefly Hh reporter signal, replicate 3","Renilla reference signal, replicate 1","Renilla reference signal, replicate 2",outcome
CG18130,DRSC19790,73868,2.37e5,,1906,8105,inactive
CG13001,DRSC19520,1.29e5,5.83e5,2.94e5,2224,5175,inactive
Mst57Dc (Male-specific transcript 57Dc),DRSC16745,4.63e5,1.60e5,,22167,4428,inactive
RpL7 (Ribosomal protein L7),DRSC03417,18676,17405,,1306,3592,active
dre4,DRSC08714,63576,46363,,2781,3401,inactive
